Literature values, collected in patent US8883820B2, “Triazole derivatives as kinase inhibitors” (Cellzome Ltd., priority 2006, dated 2014).
At least one compound was matched to its structure with a doubt left.

Row | Structure (SMILES) | selectivity between distinct PI3K isoforms (PI3K isoforms) | PIK3A signaling (PI3KCA mutant cells) | growth of PI3KCA mutant cells (PI3KCA mutant cells)
1 | O=c1cc(N2CCOCC2)oc2c(-c3ccccc3)cccc12 [LY294002] | not selective enough | abrogated | preferentially inhibited growth
2 | COC[C@H]1OC(=O)c2coc3c2[C@@]1(C)C1=C(C3=O)[C@@H]2CCC(=O)[C@@]2(C)C[C@H]1OC(C)=O [wortmannin] | not selective enough | – | –
